doi:10.1101/830620
These are yes or no findings as the source states them, for the method shown. For some of these results: Binding can be weak; no strength is given. For some of these results: In cells and extracts the contact can be indirect. For some of these results: Where a sequence is shown, tags or fusion partners need not be part of it. Each block holds one molecule with its values, some of them ahead of it.

Columns and labels:
GSK2 (rice) = target: T1, GSK2 (rice) (UniProt Q60EZ2); assay: two-hybrid
T1 sequence: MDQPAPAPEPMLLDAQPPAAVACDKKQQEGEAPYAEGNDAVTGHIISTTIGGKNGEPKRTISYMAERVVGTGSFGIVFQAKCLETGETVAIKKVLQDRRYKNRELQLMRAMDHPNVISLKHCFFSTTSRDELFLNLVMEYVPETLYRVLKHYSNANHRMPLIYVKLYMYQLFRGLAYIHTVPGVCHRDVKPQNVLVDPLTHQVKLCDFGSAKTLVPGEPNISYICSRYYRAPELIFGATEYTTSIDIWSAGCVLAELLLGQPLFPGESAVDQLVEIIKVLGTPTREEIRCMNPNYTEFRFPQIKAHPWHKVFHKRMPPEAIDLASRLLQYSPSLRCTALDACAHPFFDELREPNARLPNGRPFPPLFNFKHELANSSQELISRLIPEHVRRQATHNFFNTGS

OsBZR1 (rice) = target: T2, OsBZR1 (rice) (UniProt Q7XI96); assay: two-hybrid
T2 sequence: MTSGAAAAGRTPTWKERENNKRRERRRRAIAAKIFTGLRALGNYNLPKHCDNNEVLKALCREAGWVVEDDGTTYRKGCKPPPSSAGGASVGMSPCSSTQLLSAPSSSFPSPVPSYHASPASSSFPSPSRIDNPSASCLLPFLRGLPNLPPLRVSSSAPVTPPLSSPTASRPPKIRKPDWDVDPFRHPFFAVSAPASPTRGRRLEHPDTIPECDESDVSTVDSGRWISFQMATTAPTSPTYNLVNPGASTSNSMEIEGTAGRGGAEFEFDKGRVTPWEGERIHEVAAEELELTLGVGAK

GST-OsBZR1 (rice) = target: T3, GST-OsBZR1 (rice) (UniProt Q7XI96); assay: pull-down
T3 sequence: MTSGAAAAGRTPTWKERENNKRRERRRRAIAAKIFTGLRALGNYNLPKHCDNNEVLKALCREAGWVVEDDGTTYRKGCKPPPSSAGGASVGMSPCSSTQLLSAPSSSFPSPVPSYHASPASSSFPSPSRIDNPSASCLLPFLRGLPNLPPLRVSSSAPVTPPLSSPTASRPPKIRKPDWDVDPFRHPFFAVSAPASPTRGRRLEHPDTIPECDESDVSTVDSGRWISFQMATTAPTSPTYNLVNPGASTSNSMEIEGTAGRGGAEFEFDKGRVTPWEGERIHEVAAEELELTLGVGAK

GST-GSK2 (rice) = target: T4, GST-GSK2 (rice) (UniProt Q60EZ2); assay: pull-down
T4 sequence: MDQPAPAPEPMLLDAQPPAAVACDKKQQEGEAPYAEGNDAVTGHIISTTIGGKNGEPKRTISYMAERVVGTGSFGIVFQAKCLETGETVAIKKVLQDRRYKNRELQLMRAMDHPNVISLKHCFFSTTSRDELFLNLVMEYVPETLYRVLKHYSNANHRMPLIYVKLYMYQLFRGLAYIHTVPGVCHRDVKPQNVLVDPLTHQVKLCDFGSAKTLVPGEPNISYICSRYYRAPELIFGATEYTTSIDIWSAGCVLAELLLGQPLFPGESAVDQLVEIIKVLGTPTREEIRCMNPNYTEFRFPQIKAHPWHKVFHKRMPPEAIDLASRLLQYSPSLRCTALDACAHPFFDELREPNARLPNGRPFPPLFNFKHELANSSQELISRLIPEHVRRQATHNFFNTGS

[1] = target: POW1 (put on weight 1) (rice); assay: two-hybrid
[2] = target: TAF2-C (C-terminus of transcription initiation factor TFIID subunit 2) (rice); assay: two-hybrid
[3] = target: POW1 fused to a half of Venus YFP (BiFC) (rice); assay: split reporter

B1: OsBZR1 (protein, UniProt Q7XI96 1-298)
chain: MTSGAAAAGRTPTWKERENNKRRERRRRAIAAKIFTGLRALGNYNLPKHCDNNEVLKALCREAGWVVEDDGTTYRKGCKPPPSSAGGASVGMSPCSSTQLLSAPSSSFPSPVPSYHASPASSSFPSPSRIDNPSASCLLPFLRGLPNLPPLRVSSSAPVTPPLSSPTASRPPKIRKPDWDVDPFRHPFFAVSAPASPTRGRRLEHPDTIPECDESDVSTVDSGRWISFQMATTAPTSPTYNLVNPGASTSNSMEIEGTAGRGGAEFEFDKGRVTPWEGERIHEVAAEELELTLGVGAK
- binding [1]: no binding
- binding [2]: no binding

B2: OsBZR1 fused to a half of Venus YFP (BiFC) (protein, UniProt Q7XI96 1-298)
chain: MTSGAAAAGRTPTWKERENNKRRERRRRAIAAKIFTGLRALGNYNLPKHCDNNEVLKALCREAGWVVEDDGTTYRKGCKPPPSSAGGASVGMSPCSSTQLLSAPSSSFPSPVPSYHASPASSSFPSPSRIDNPSASCLLPFLRGLPNLPPLRVSSSAPVTPPLSSPTASRPPKIRKPDWDVDPFRHPFFAVSAPASPTRGRRLEHPDTIPECDESDVSTVDSGRWISFQMATTAPTSPTYNLVNPGASTSNSMEIEGTAGRGGAEFEFDKGRVTPWEGERIHEVAAEELELTLGVGAK
- binding [3]: no binding

Next, values leading:

- binding (GSK2 (rice)): binds
- binding (OsBZR1 (rice)): no binding
Molecule: GL7 (rice)

- binding (GST-OsBZR1 (rice)): no binding
- binding (GST-GSK2 (rice)): binds
Molecule: GL7-YFP (rice)
